Source: publication doi:10.1101/2023.08.07.552284
No constants are given. Whether binding was seen depends on the method and setting. For some of these results: Binding can be weak; no strength is given. Where a sequence is shown, tags or fusion partners need not be part of it. For some of these results: In cells and extracts the contact can be indirect.

T1: DPA, yeast two-hybrid fusion (Arabidopsis thaliana) (UniProt Q9FNY3)
T1 sequence: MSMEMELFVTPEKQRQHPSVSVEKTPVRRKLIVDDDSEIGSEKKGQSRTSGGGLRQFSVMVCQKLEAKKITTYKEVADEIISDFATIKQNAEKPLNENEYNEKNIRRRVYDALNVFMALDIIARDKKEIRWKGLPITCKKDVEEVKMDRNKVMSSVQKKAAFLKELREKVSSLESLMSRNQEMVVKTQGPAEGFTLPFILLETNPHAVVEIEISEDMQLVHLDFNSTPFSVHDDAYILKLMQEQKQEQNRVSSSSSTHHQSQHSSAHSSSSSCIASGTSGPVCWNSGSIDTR

T2: MYB3R3, yeast two-hybrid fusion (Arabidopsis thaliana) (UniProt Q8H1P9)
T2 sequence: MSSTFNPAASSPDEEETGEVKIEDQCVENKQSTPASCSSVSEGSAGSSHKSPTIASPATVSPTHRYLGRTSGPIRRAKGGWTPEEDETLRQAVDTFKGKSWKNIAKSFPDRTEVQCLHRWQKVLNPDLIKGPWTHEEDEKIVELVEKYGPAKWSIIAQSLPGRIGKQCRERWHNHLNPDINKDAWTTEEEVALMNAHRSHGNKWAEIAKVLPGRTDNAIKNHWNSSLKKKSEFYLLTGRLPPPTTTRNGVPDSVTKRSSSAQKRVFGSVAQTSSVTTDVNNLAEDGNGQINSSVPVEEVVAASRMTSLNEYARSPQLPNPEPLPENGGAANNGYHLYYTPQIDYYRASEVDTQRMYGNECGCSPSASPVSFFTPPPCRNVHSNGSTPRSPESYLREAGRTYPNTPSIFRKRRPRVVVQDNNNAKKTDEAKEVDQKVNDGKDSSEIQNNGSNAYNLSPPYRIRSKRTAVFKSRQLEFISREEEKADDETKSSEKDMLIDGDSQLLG

T3: MYB3R1, yeast two-hybrid fusion (Arabidopsis thaliana) (UniProt Q9S7G7)
T3 sequence: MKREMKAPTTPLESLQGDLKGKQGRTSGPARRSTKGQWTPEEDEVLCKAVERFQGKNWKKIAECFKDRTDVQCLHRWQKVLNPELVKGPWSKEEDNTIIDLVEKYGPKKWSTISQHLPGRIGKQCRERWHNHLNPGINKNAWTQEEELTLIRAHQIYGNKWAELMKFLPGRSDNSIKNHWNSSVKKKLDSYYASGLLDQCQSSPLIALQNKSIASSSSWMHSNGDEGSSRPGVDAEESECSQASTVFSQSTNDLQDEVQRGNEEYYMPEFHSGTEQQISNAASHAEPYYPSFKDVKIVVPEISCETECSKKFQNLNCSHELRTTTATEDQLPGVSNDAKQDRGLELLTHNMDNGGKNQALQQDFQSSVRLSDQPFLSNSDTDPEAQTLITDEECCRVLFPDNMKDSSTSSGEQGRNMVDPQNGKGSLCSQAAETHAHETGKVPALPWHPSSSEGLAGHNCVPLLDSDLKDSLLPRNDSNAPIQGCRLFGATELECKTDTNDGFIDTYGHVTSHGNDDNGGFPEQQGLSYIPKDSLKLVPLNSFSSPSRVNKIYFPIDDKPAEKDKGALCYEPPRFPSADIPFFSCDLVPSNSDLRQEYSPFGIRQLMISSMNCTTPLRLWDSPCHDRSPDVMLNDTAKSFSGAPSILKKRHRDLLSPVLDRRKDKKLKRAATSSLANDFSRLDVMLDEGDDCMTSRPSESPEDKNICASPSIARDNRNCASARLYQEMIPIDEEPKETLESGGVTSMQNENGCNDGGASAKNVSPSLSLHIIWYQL

T4: NAC050, yeast two-hybrid fusion (Arabidopsis thaliana) (UniProt Q9SQX9)
T4 sequence: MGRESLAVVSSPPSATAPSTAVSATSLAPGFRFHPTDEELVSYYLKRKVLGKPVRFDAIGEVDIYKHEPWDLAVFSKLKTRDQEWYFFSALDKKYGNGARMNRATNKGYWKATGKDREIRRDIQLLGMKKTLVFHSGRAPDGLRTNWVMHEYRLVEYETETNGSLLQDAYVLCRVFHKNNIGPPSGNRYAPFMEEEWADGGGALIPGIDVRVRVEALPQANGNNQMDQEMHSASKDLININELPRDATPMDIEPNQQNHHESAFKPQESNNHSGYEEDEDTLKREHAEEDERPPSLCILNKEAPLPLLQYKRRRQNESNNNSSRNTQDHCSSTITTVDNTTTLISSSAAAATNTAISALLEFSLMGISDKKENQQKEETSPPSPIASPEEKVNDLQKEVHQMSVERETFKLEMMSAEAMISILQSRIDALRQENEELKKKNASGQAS

T5: NAC052, yeast two-hybrid fusion (Arabidopsis thaliana) (UniProt Q9SQY0)
T5 sequence: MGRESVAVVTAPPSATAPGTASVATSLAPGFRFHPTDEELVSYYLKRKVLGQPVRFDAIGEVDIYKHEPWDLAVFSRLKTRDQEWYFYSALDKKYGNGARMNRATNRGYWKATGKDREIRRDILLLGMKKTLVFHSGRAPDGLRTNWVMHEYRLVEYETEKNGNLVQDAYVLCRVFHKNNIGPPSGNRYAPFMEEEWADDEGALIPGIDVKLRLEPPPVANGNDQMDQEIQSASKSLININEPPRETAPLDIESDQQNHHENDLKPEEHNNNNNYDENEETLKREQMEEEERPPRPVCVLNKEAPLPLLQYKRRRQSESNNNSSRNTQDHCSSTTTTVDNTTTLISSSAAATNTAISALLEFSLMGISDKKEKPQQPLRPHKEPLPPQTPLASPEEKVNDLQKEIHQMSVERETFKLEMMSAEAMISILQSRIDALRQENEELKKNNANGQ

T6: nYFP-NAC050, BiFC fusion (Arabidopsis thaliana) (UniProt Q9SQX9)
T6 sequence: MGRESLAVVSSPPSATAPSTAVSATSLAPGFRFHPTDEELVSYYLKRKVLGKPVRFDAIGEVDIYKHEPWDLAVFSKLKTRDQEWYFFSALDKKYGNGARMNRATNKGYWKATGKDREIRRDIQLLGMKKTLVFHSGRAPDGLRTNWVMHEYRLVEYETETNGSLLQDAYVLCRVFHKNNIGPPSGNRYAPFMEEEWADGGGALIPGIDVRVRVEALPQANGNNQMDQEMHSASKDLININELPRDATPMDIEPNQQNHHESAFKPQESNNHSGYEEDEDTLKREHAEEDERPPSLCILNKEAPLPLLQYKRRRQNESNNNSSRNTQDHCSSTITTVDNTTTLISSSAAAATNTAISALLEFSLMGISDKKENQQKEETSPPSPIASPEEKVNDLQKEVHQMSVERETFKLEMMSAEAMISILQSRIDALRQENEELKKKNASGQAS

T7: nYFP-NAC052, BiFC fusion (Arabidopsis thaliana) (UniProt Q9SQY0)
T7 sequence: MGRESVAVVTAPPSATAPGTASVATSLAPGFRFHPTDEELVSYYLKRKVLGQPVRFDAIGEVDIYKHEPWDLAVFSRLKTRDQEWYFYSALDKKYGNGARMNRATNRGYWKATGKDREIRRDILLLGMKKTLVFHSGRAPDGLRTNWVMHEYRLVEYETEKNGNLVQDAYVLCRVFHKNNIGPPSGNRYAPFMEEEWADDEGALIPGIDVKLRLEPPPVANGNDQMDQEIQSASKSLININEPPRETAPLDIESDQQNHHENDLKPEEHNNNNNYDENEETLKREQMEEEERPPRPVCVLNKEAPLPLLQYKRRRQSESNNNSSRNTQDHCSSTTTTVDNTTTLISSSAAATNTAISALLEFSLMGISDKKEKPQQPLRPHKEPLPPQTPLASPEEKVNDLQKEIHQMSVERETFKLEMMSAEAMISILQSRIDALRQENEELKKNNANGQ


Columns and labels:
[1] = target: T1, DPA, yeast two-hybrid fusion (Arabidopsis thaliana); experiment: two-hybrid
[2] = target: T2, MYB3R3, yeast two-hybrid fusion (Arabidopsis thaliana); experiment: two-hybrid
[3] = target: T3, MYB3R1, yeast two-hybrid fusion (Arabidopsis thaliana); experiment: two-hybrid
[4] = target: T4, NAC050, yeast two-hybrid fusion (Arabidopsis thaliana); experiment: two-hybrid
[5] = target: T5, NAC052, yeast two-hybrid fusion (Arabidopsis thaliana); experiment: two-hybrid
[6] = target: T6, nYFP-NAC050, BiFC fusion (Arabidopsis thaliana); experiment: split reporter
[7] = target: T7, nYFP-NAC052, BiFC fusion (Arabidopsis thaliana); experiment: split reporter
[8] = target: LIN37B, yeast two-hybrid fusion (Arabidopsis thaliana); experiment: two-hybrid

Molecule	binding [2]	binding [6]	binding [7]	further results
BTE1, yeast two-hybrid fusion (Arabidopsis thaliana)	binds	–	–	binding [1]: binds
BTL1, yeast two-hybrid fusion (Arabidopsis thaliana)	binds	–	–	binding [3]: binds
FLAC, yeast two-hybrid fusion (Arabidopsis thaliana)	binds	–	–	binding [3]: no binding; binding [4]: no binding; binding [5]: no binding
FLIC, yeast two-hybrid fusion (AD-FLIC) (from UniProt F4KFG7)	binds	–	–	–
LIN37B, BiFC fusion (Arabidopsis thaliana)	–	binds	binds	–
cYFP-FLAC, BiFC fusion (Arabidopsis thaliana)	–	no binding	binds	–
cYFP-LIN37A, BiFC fusion (Arabidopsis thaliana)	–	binds	no binding	–
NAC050, yeast two-hybrid fusion (protein, UniProt Q9SQX9 1-447) MGRESLAVVSSPPSATAPSTAVSATSLAPGFRFHPTDEELVSYYLKRKVLGKPVRFDAIGEVDIYKHEPWDLAVFSKLKTRDQEWYFFSALDKKYGNGARMNRATNKGYWKATGKDREIRRDIQLLGMKKTLVFHSGRAPDGLRTNWVMHEYRLVEYETETNGSLLQDAYVLCRVFHKNNIGPPSGNRYAPFMEEEWADGGGALIPGIDVRVRVEALPQANGNNQMDQEMHSASKDLININELPRDATPMDIEPNQQNHHESAFKPQESNNHSGYEEDEDTLKREHAEEDERPPSLCILNKEAPLPLLQYKRRRQNESNNNSSRNTQDHCSSTITTVDNTTTLISSSAAAATNTAISALLEFSLMGISDKKENQQKEETSPPSPIASPEEKVNDLQKEVHQMSVERETFKLEMMSAEAMISILQSRIDALRQENEELKKKNASGQAS	–	–	–	binding [8]: binds
